PubChem BioAssay AID504764 | Drosophila RNAi Screening Center | 2011

Purpose: 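Genes whose knock-down alters Notch-dependent transcription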 (primary screen)
Cells: Drosophila Kc167 cells
Reagents: long dsRNA against Drosophila genes
Time to read-out: about 5 days (4 days dsRNA, then 24 h after transfection)
Conditions: transfection of constitutively active membrane-tethered Notch lacking the extracellular domain, read 24 h later
Read-out: 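Light from a Notch-responsive E(spl)m3 luciferase reporter under active Notch, with control-promoter and no-Notch reporter wells to normalise; raw counts from paired wells a and b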
Direction: induced reporter light, run 1, well a and induced reporter light, run 1, well b: higher = more light from the Notch target reporter with active Notch; control promoter light, run 1, well a and control promoter light, run 1, well b: higher = more light from the viral control promoter (cell number, transfection, viability); uninduced reporter light, run 1, well a: higher = more light from the Notch target reporter without active Notch
Call rule: 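Wells with low control signal or poorly matching duplicates excluded; duplicates averaged; per source plate, z beyond ±2 for induced/control log2 ratio or beyond ±1.8 for induced/uninduced marks a hit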
Meaning of the calls: active = modifier hit (raised or lowered Notch signal); inactive = not a hit
In all, the deposit lists about 22,000 reagents; shown is a random part of those that have a named target and a result. Over the whole deposit, 403 (1.9%) were called active. 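Unnormalised raw counts per well; ratio z-scores behind the hit calls and whether each hit raises or lowers signal are not deposited.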 Reagents against one gene are numbered here. Not given: the amount of reagent.

Argk2 (Arginine kinase 2) scored induced reporter light, run 1, well a = 2.14e5; induced reporter light, run 1, well b = 2.14e5; control promoter light, run 1, well a = 2.61e5; control promoter light, run 1, well b = 1.91e5; uninduced reporter light, run 1, well a = 12230; inactive. Against CG18508, the entry reads induced reporter light, run 1, well a = 73295; induced reporter light, run 1, well b = 75215; control promoter light, run 1, well a = 96625; control promoter light, run 1, well b = 1.34e5; uninduced reporter light, run 1, well a = 6105; inactive. With knock-down of CG43999, the screen gave induced reporter light, run 1, well a = 2.42e5; induced reporter light, run 1, well b = 2.48e5; control promoter light, run 1, well a = 2.84e5; control promoter light, run 1, well b = 2.32e5; uninduced reporter light, run 1, well a = 21400; inactive. Depletion of tsr (twinstar) came out at: induced reporter light, run 1, well a = 1.56e5; induced reporter light, run 1, well b = 1.61e5; control promoter light, run 1, well a = 1.21e5; control promoter light, run 1, well b = 1.14e5; uninduced reporter light, run 1, well a = 11370; inactive. Silencing of CG15202 resulted in: induced reporter light, run 1, well a = 1.23e5; induced reporter light, run 1, well b = 1.24e5; control promoter light, run 1, well a = 2.25e5; control promoter light, run 1, well b = 2.55e5; uninduced reporter light, run 1, well a = 10132; inactive. With knock-down of htl (heartless), the record shows induced reporter light, run 1, well a = 1.40e5; induced reporter light, run 1, well b = 1.77e5; control promoter light, run 1, well a = 2.07e5; control promoter light, run 1, well b = 1.91e5; uninduced reporter light, run 1, well a = 16510; inactive.

Against CG4820 the deposit lists induced reporter light, run 1, well a = 82795; induced reporter light, run 1, well b = 98805; control promoter light, run 1, well a = 94025; control promoter light, run 1, well b = 62750; uninduced reporter light, run 1, well a = 4320; inactive. After knock-down of gek (genghis khan), the screen gave induced reporter light, run 1, well a = 1.53e5; induced reporter light, run 1, well b = 2.22e5; control promoter light, run 1, well a = 1.60e5; control promoter light, run 1, well b = 1.71e5; uninduced reporter light, run 1, well a = 13260; inactive. Knock-down of CG7290 gave: induced reporter light, run 1, well a = 1.20e5; induced reporter light, run 1, well b = 95915; control promoter light, run 1, well a = 1.11e5; control promoter light, run 1, well b = 1.29e5; uninduced reporter light, run 1, well a = 6585; inactive. wgn (wengen) scored induced reporter light, run 1, well a = 60025; induced reporter light, run 1, well b = 71650; control promoter light, run 1, well a = 67675; control promoter light, run 1, well b = 86890; uninduced reporter light, run 1, well a = 10880; inactive. VhaAC45 (Vacuolar H[+] ATPase AC45 accessory subunit) scored induced reporter light, run 1, well a = 1.17e5; induced reporter light, run 1, well b = 1.37e5; control promoter light, run 1, well a = 1.64e5; control promoter light, run 1, well b = 1.87e5; uninduced reporter light, run 1, well a = 10270; active. Silencing of shg (shotgun) resulted in: induced reporter light, run 1, well a = 2.19e5; induced reporter light, run 1, well b = 1.86e5; control promoter light, run 1, well a = 1.71e5; control promoter light, run 1, well b = 1.99e5; uninduced reporter light, run 1, well a = 16255; inactive.

Silencing of CG7367 gave: induced reporter light, run 1, well a = 1.41e5; induced reporter light, run 1, well b = 1.99e5; control promoter light, run 1, well a = 97650; control promoter light, run 1, well b = 1.13e5; uninduced reporter light, run 1, well a = 22650; inactive. Silencing of Ntf-2r (Nuclear transport factor-2-related) gave: induced reporter light, run 1, well a = 1.59e5; induced reporter light, run 1, well b = 1.40e5; control promoter light, run 1, well a = 1.92e5; control promoter light, run 1, well b = 1.94e5; uninduced reporter light, run 1, well a = 16985; inactive. CG7135 gave induced reporter light, run 1, well a = 99610; induced reporter light, run 1, well b = 88680; control promoter light, run 1, well a = 1.19e5; control promoter light, run 1, well b = 1.06e5; uninduced reporter light, run 1, well a = 9955; inactive. Against sona (sol narae) #1 the deposit lists induced reporter light, run 1, well a = 1.88e5; induced reporter light, run 1, well b = 1.48e5; control promoter light, run 1, well a = 1.28e5; control promoter light, run 1, well b = 1.32e5; uninduced reporter light, run 1, well a = 12445; inactive. Silencing of sona (sol narae) #2 resulted in: induced reporter light, run 1, well a = 92205; induced reporter light, run 1, well b = 83895; control promoter light, run 1, well a = 47390; control promoter light, run 1, well b = 49840; uninduced reporter light, run 1, well a = 6365; inactive. sona (sol narae) #3 showed induced reporter light, run 1, well a = 1.90e5; induced reporter light, run 1, well b = 1.71e5; control promoter light, run 1, well a = 1.65e5; control promoter light, run 1, well b = 1.39e5; uninduced reporter light, run 1, well a = 10982; inactive.

Asap (ArfGAP with SH3 domain, ankyrin repeat and PH domain) #1 scored induced reporter light, run 1, well a = 1.93e5; induced reporter light, run 1, well b = 1.65e5; control promoter light, run 1, well a = 2.24e5; control promoter light, run 1, well b = 1.69e5; uninduced reporter light, run 1, well a = 14278; inactive. For Asap (ArfGAP with SH3 domain, ankyrin repeat and PH domain) #2 the deposit lists induced reporter light, run 1, well a = 1.76e5; induced reporter light, run 1, well b = 1.72e5; control promoter light, run 1, well a = 1.66e5; control promoter light, run 1, well b = 1.50e5; uninduced reporter light, run 1, well a = 14235; inactive. Depletion of Mul1 (Mitochondrial E3 ubiquitin protein ligase 1) came out at: induced reporter light, run 1, well a = 85435; induced reporter light, run 1, well b = 96090; control promoter light, run 1, well a = 1.22e5; control promoter light, run 1, well b = 1.49e5; uninduced reporter light, run 1, well a = 7340; inactive. For CG30122 #1 the deposit lists induced reporter light, run 1, well a = 94355; induced reporter light, run 1, well b = 91855; control promoter light, run 1, well a = 1.99e5; control promoter light, run 1, well b = 2.02e5; uninduced reporter light, run 1, well a = 7160; inactive. CG30122 #2 showed induced reporter light, run 1, well a = 70780; induced reporter light, run 1, well b = 78365; control promoter light, run 1, well a = 1.15e5; control promoter light, run 1, well b = 1.27e5; uninduced reporter light, run 1, well a = 6050; inactive. CG13437 showed induced reporter light, run 1, well a = 1.86e5; induced reporter light, run 1, well b = 1.29e5; control promoter light, run 1, well a = 2.04e5; control promoter light, run 1, well b = 1.86e5; uninduced reporter light, run 1, well a = 5920; inactive.

Taken from above.
Mul1 (Mitochondrial E3 ubiquitin protein ligase 1), uninduced reporter light, run 1, well a = 7340
wgn (wengen), control promoter light, run 1, well b: 86890
sona (sol narae) #1, control promoter light, run 1, well a = 1.28e5
